Data: US9567368B2, “Peptide tyrosinase activators” (Escape Therapeutics, Inc., priority 2013, dated 2017)
Not every detail of the peptide structures is certain; ends, links or a residue may be inferred. Where no end group is shown, it is not given here.

What was measured:
[1] = test system: B16-F1 mouse melanoma cells; assay: Melanin content measurement (extracellular and intracellular) in B16 cells; assay type: cell-based; details: 300 micromolar; for appearance (darkness of color, pigmentation) of cell suspension: 72 hour incubation, FIG. 2B
Procedure: B16-F1 mouse melanoma cells (CRL-6323) were obtained and cultured in DMEM containing 10 percent fetal bovine serum, 100 units per milliliter (U/mL) penicillin, 0.1 mg/mL streptomycin, and 0.25 microgram per milliliter (μg/mL) amphotericin B at 37 degrees Celsius in a humidified 95 percent air/5 percent CO2 incubator. Drug treatment began 24 hours after seeding. Cells were harvested 72 hours later and melanin content and tyrosinase activity determined in triplicate.
Extracellular melanin was estimated spectro-photometrically based on its absorption of light at 475 nanometers. After 72 hours treatment period, medium was collected and centrifuged (800×g for 10 minutes) and absorbance read at 475 nanometers. For intracellular melanin content, cells were collected by centrifugation and resuspended in PBS. Aliquots were removed for cell counting and protein estimation. To the remaining suspension, an equal volume of ethanol:ether (1:1 volume to volume) was added in order to remove opaque substances other than melanin which is not soluble in ethanol/ether (see, for example, Oikawa et al., Yale J. Biol. Med., 1973, 46: 500-507). After further centrifugation at 3000×g for 5 minutes, the precipitate was solubilized by treatment with 1 milliliter of 1 N NaOH solution at 80 degrees Celsius for 30 minutes in capped tubes. The absorbance was measured at 475 nanometers and compared to a standard curve prepared from standard dopa-melanin dissolved in the same solution. Melanin content per microgram (μg) cellular protein was calculated and expressed as a percentage of control.
FIGS. 2A-2B show the effect of P9 and P10 on extracellular and intracellular melanin content. […] In a specific embodiment, general materials and methods include 3×10E5 B16 cells per well incubated for 72 hours. Control wells had media only. Other treatments were 600 micromolar L-tyrosine; 50 microgram per milliliter scoparone; 300 micromolar IBMX; 300 micromolar P9; and 300 micromolar P10. Data are expressed as a percentage of the control and are mean±SEM of three separate experiments and analyzed by one-way ANOVA. […]

[2] = test system: purified mushroom tyrosinase; assay: Allosteric activation of tyrosinase after inhibition by 6BH4; assay type: biochemical; details: 100 micromolar peptide added at minute 12 after 6BH4
Procedure: To investigate the mechanism by which P9 and P10 exert their stimulatory effect on tyrosinase, 6BH4, an allosteric inhibitor of tyrosinase, was used in an experiment. In a 96-well plate, control wells containing substrate L-tyrosine, purified mushroom tyrosinase, and PBS (pH 6.8) were incubated at 37 degrees Celsius and periodically read at 475 nanometers. After 6 minutes, 20 micromolar 6BH4 was added to all wells except controls. At minute 12, the other triplicate wells received one of the following reagents: 20 micromolar of α-MSH, 100 micromolar of P4, P9, or P10, or 200 micromolar L-tyrosine.
In a 96-well plate the control wells contained substrate L-tyrosine, purified mushroom tyrosinase and PBS (pH 6.8). The plate was incubated at 37 degrees Celsius and periodically read at 475 nanometers. After six minutes, 6BH4 was added to all wells except the control triplicate. At minute 12, the other triplicate wells received one of the following reagents: 10 micromolar of α-MSH, 100 micromolar of P4, P9 or P10, and 200 micromolar L-tyrosine. Data shown are mean±SEM of three independent runs.

Substance	appearance (darkness of color, pigmentation) of cell suspension [1]	reversal of 6BH4-dependent tyrosinase inhibition (reactivation of the enzyme) [2]	tyrosinase activity after reactivation, compared with control [2]	extracellular melanin content increase ([1]; B16 cells, 72 hours incubation, relative to control) [%]
YRSRK [P10, YRSRK]	darkest cell suspension	reactivated the enzyme	increased its activity to levels exceeding the control	–
YSSWY [P9, YSSWY]	darkest cell suspension	reactivated the enzyme	increased its activity to levels exceeding the control	170±6
